The list is a part of this screen's results and no random one: it gathers tests that were run many times, whatever their T/C, doses with no T/C, and many T/C values between a quarter and a half above the control. Further doses and runs are listed elsewhere. T/C gives the treated animals as a percentage of the vehicle group. Some doses have a count of surviving animals in place of a T/C: the source files T/C as zero there, which appears to mark a toxic dose or a test without result, not a measured value. Some survivor counts are full or nearly so, which does not show that the dose was tolerated: the source hardly ever lists a survival T/C far under the control, and the zero likely stands for such cases as well. Survivors were counted at the toxicity check, usually on the fifth day, unless a day is given; later deaths do not show. Schedules are NCI's codes, taken here to give the interval after Q, in days (D) or hours (H), and the number of doses after X.
Tested on: L1210 leukemia ip in BDF1 mice, survival T/C
Assay: NCI In Vivo Anticancer Drug Screen. Data for tumor model L1210 Leukemia (intraperitoneal) in B6D2F1 (BDF1) mice
Conditions: T/C endpoint: mean survival time, higher T/C = longer survival
[1] = dose: 400.0 mg/kg/injection, schedule: Q01DX001 (ip), vehicle: carboxymethylcellulose (CMC)
[2] = dose: 100.0 mg/kg/injection, schedule: Q01DX009 (ip), vehicle: saline
[3] = dose: 200.0 mg/kg/injection, schedule: Q01DX009 (ip), vehicle: saline
[4] = dose: 400.0 mg/kg/injection, schedule: Q01DX009 (ip), vehicle: saline
[5] = dose: 100.0 mg/kg/injection, schedule: Q04DX003 (ip), vehicle: Klucel (hydroxypropylcellulose) (HPC)
[6] = dose: 200.0 mg/kg/injection, schedule: Q04DX003 (ip), vehicle: Klucel (hydroxypropylcellulose) (HPC)
[7] = dose: 400.0 mg/kg/injection, schedule: Q04DX003 (ip), vehicle: Klucel (hydroxypropylcellulose) (HPC)
[8] = dose: 400.0 mg/kg/injection, schedule: Q04DX002 (ip), vehicle: saline with Tween-80
[9] = dose: 100.0 mg/kg/injection, schedule: Q01DX001 (ip), vehicle: saline
[10] = dose: 100.0 mg/kg/injection, schedule: Q04DX003 (ip), vehicle: saline
[11] = dose: 200.0 mg/kg/injection, schedule: Q01DX001 (ip), vehicle: saline
[12] = dose: 200.0 mg/kg/injection, schedule: Q04DX003 (ip), vehicle: saline
[13] = dose: 400.0 mg/kg/injection, schedule: Q01DX001 (ip), vehicle: saline
[14] = dose: 100.0 mg/kg/injection, schedule: Q01DX009 (ip), vehicle: Klucel (hydroxypropylcellulose) (HPC)
[15] = dose: 200.0 mg/kg/injection, schedule: Q01DX009 (ip), vehicle: Klucel (hydroxypropylcellulose) (HPC)
[16] = dose: 400.0 mg/kg/injection, schedule: Q01DX009 (ip), vehicle: Klucel (hydroxypropylcellulose) (HPC)
[17] = dose: 400.0 mg/kg/injection, schedule: Q04DX003 (ip), vehicle: saline with Tween-80
[18] = dose: 400.0 mg/kg/injection, schedule: Q04DX002 (ip), vehicle: saline

With `NCCCC(NC(=O)CCCCCCCCN=C(N)N)C(O)CCCCCCCCN=C(N)N` (stereo not given) the survivor count (dose: 40.0 mg/kg/injection, schedule: Q01DX001 (ip), vehicle: carboxymethylcellulose (CMC)) was 2 of 4, the survivor count (dose: 80.0 mg/kg/injection, schedule: Q01DX001 (ip), vehicle: carboxymethylcellulose (CMC)) was 2 of 4 and the survivor count (dose: 100.0 mg/kg/injection, schedule: Q01DX001 (ip), vehicle: carboxymethylcellulose (CMC)) was 2 of 4. For the same molecule, the survivor count (dose: 200.0 mg/kg/injection, schedule: Q01DX001 (ip), vehicle: carboxymethylcellulose (CMC)) was 1 of 4 and the survivor count [1] was 0 of 4.
For `c1ccc2c(c1)CC([CH2][Hg][CH2]C1Cc3ccccc3O1)O2` (stereo not given), the survivor count [1] was 0 of 4.
For `Nc1nc2ncc(CCCNc3ccc(C(=O)NC(CCC(=O)O)C(=O)O)cc3)nc2c(=O)[nH]1` (stereo not given), the survivor count [1] was 1 of 4.
In the case of `Nc1ccc(C(=O)OCCCN2CCCCC2)cc1`, the survivor count [2] is reported as 0 of 6, the survivor count [3] is reported as 0 of 6 and the survivor count [4] is reported as 0 of 6.
With `O=C1NC(C2CC3C=CC2C3)Nc2ccccc21` (stereo not given) the survivor count [5] was 2 of 6, the survivor count [6] was 0 of 6 and the survivor count [7] was 0 of 6.
With `NNP(=O)(N1CCCCC1)N1CCCCC1` the survivor count [8] was 0 of 3.
In the case of `CC/C(=N\[N+](C)(C)C)c1ccccc1`, the survivor count (dose: 150.0 mg/kg/injection, schedule: Q01DX001 (ip), vehicle: saline) is reported as 0 of 6 and the survivor count (dose: 300.0 mg/kg/injection, schedule: Q01DX001 (ip), vehicle: saline) is reported as 0 of 6.
For `CNCCOC(c1ccccc1)c1ccccc1C` (stereo not given), the survivor count [9] was 3 of 6, the survivor count [2] was 0 of 6 and the survivor count [10] was 2 of 4. The survivor count [11] was 0 of 6, the survivor count [3] was 0 of 6 and the survivor count [12] was 0 of 4. The survivor count [13] was 0 of 6, the survivor count [4] was 0 of 6 and the survivor count (dose: 400.0 mg/kg/injection, schedule: Q04DX003 (ip), vehicle: saline) was 0 of 4.
For `NNC(=O)c1c[nH]c2ccccc2c1=O`, the survivor count [14] was 6 of 6, the survivor count [15] was 6 of 6 and the survivor count [16] was 6 of 6.
`CC(=O)Nc1ccc(Cc2ccc(Cl)cc2)cc1` was tested, and the survivor count [13] was 0 of 6.
`C=C1C(=O)OCC2(C)CCCCC12` (stereo not given) was tested, and the survivor count (dose: 40.0 mg/kg/injection, schedule: Q04DX003 (ip), vehicle: saline) was 0 of 6, the survivor count (dose: 100.0 mg/kg/injection, schedule: Q04DX003 (ip), vehicle: saline with Tween-80) was 0 of 6 and the survivor count (dose: 200.0 mg/kg/injection, schedule: Q04DX003 (ip), vehicle: saline with Tween-80) was 0 of 6. The survivor count [17] was 0 of 6.
`Cc1cc(N=Nc2c(C)ccc3ncccc23)ccc1N` was tested, and the survivor count (dose: 12.5 mg/kg/injection, schedule: Q01DX001 (ip), vehicle: DMSO) was 3 of 6, the survivor count (dose: 25.0 mg/kg/injection, schedule: Q01DX001 (ip), vehicle: DMSO) was 0 of 6 and the survivor count (dose: 50.0 mg/kg/injection, schedule: Q01DX001 (ip), vehicle: DMSO) was 0 of 6. For the same molecule, the survivor count (dose: 100.0 mg/kg/injection, schedule: Q01DX001 (ip), vehicle: DMSO) was 0 of 6, the survivor count (dose: 200.0 mg/kg/injection, schedule: Q01DX001 (ip), vehicle: DMSO) was 0 of 6 and the survivor count (dose: 400.0 mg/kg/injection, schedule: Q01DX001 (ip), vehicle: DMSO) was 0 of 6.
For `N#CC(C#N)=Cc1ccco1`, the survivor count (dose: 80.0 mg/kg/injection, schedule: Q01DX001 (ip), vehicle: saline) was 1 of 4, the survivor count [9] was 0 of 4 and the survivor count [11] was 0 of 4. For the same molecule, the survivor count [13] was 0 of 4.
For `CN(N=O)C(=O)NC1C=CCCC1` (stereo not given), the survivor count (dose: 400.0 mg/kg/injection, schedule: Q01DX001 (ip), vehicle: other) was 5 of 10.
In the case of `CCC(=O)N(N=O)c1ccccc1`, the survivor count (dose: 37.5 mg/kg/injection, schedule: Q01DX001 (ip), vehicle: saline) is reported as 1 of 6 and the survivor count (dose: 75.0 mg/kg/injection, schedule: Q01DX001 (ip), vehicle: saline) is reported as 0 of 6.
For `CCCCN(C(=O)CCl)C(C)(C)C(SSC(c1ccc(Cl)cc1)C(C)(C)N(CCCC)C(=O)CCl)c1ccc(Cl)cc1` (stereo not given), the survivor count [14] was 1 of 6, the survivor count [15] was 0 of 6 and the survivor count [16] was 0 of 6.
For `CCOC(=O)C1(Cl)OC(Cl)(Cl)C(Cl)C1Cl` (stereo not given), the survivor count [9] was 0 of 6, the survivor count [11] was 0 of 6 and the survivor count [13] was 0 of 6.
With `Cc1ccc(S(=O)(=O)CCCl)cc1` the survivor count [7] was 1 of 6.
`CCC(C)C(CN)(CCCCN1CCCCC1)c1cccc2ccccc12` (stereo not given) was tested, and the survivor count [17] was 0 of 6.
`O=C(O)c1cc2ccccc2cn1` was tested, and the survivor count [18] was 0 of 3.
`Cc1c(C)c(C)c([N+](=O)[O-])c([N+](=O)[O-])c1C` was tested, and the survivor count [8] was 3 of 3.
For `CCN(CC)CCCN1c2ccccc2Sc2ccc(Cl)cc21`, the survivor count (dose: 25.0 mg/kg/injection, schedule: Q01DX009 (ip), vehicle: saline) was 0 of 6, the survivor count (dose: 50.0 mg/kg/injection, schedule: Q04DX003 (ip), vehicle: saline) was 0 of 4 and the survivor count [10] was 1 of 4. The survivor count [12] was 0 of 4.
With `COc1ccc(OC)c(NC(=O)NNc2c([N+](=O)[O-])cc(C(F)(F)F)cc2[N+](=O)[O-])c1` the survivor count (dose: 400.0 mg/kg/injection, schedule: Q01DX009 (ip), vehicle: other) was 0 of 6.
In the case of `OC1(C2C=CC=C2)c2ccccc2C=Cc2ccccc21`, the survivor count (dose: 75.0 mg/kg/injection, schedule: Q01DX001 (ip), vehicle: other) is reported as 0 of 6, the survivor count (dose: 150.0 mg/kg/injection, schedule: Q01DX001 (ip), vehicle: other) is reported as 0 of 6 and the survivor count (dose: 300.0 mg/kg/injection, schedule: Q01DX001 (ip), vehicle: other) is reported as 0 of 6.
`O=C(NCc1cnccn1)c1ccco1` was tested, and the survivor count (dose: 400.0 mg/kg/injection, schedule: Q01DX005 (ip), vehicle: saline) was 1 of 4.
For `CC1CC(C)(C)[N+](C)=C(CC(O)(c2ccccc2)c2ccccc2)O1` (stereo not given), the survivor count [5] was 0 of 6, the survivor count [6] was 0 of 6 and the survivor count [7] was 0 of 6.
In the case of `O=[N+]([O-])c1cc(S(=O)(=O)c2ccc(O)c([N+](=O)[O-])c2)ccc1O`, the survivor count (dose: 200.0 mg/kg/injection, schedule: Q04DX002 (ip), vehicle: saline) is reported as 2 of 3 and the survivor count [18] is reported as 1 of 3.

Source: PubChem BioAssay AID248 (DTP/NCI, 2004)
